Measured values taken from PubChem BioAssay AID504834 (National Center for Advancing Translational Sciences (NCATS), 2011).
In all, about 320,000 compounds went through this assay and about 22,000 (6.9%) were called active. The inconclusive results got no clear call from the source; some entries with a clear call stand among them for comparison. Calls follow the shape of the dose curve; as a rule, active = well fitted inhibition curve with a large enough effect; inconclusive = small, poorly fitted or top-dose-only effect, or another doubt; inactive = no such curve, though single readings can be large or run the other way. Potencies beside an inconclusive call are fits to weak or partial responses and may not hold up.
Potency is read from the fitted curve at half-maximal effect.

Assay: Primary qHTS for delayed death inhibitors of the malarial parasite plastid, 96 hour incubation
Conditions: P. falciparum luciferase reporter growth; series mostly up to 28.7 µM
How it was run: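 Infected RBCs, 2% Hct / 0.05% parasitemia final; luciferase-reporter P. falciparum; cpd 96 h, 37 C, 5% CO2; luciferase detection reagent; luminescence.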
In the case of `COc1ccc(NC(=O)Nc2nnc(N3CCCCC3C)s2)cc1OC` (configuration not stated), the Potency was inconclusive: 18.5 µM [inhibitor, single point]. In the case of `O=C(Cc1c(C(=O)O)[nH]c2ccccc12)NCCN1CCN(c2cccc(Cl)c2)CC1`, the Potency was inconclusive: 0.0465 µM [inhibitor, full curve, poor fit]. For `COc1ccc(C(=O)Nc2cccc3ccccc23)cc1`, the Potency was inconclusive: 18.5 µM [inhibitor, single point]. In the case of `CCCCOc1ccc(-c2nc(SCC(N)=O)n[nH]2)cc1`, the Potency was “inactive”. With `O=C(OCc1nc2ccccc2[n+]([O-])c1C(=O)c1ccccc1)c1cccnc1` the Potency was inconclusive: 14.7 µM [inhibitor, single point]. With `O=C(CSc1nnc(Cc2ccccc2)o1)c1cc(F)ccc1F` the Potency was “inactive”. For `CC1CCCCN1C(=O)Cn1c(=O)oc2cc(S(=O)(=O)N3CCCC3)ccc21` (configuration not stated), the Potency was inconclusive: 18.5 µM [inhibitor, single point]. In the case of `O=C(NC(=O)c1ccccc1)NC(=O)c1ccccc1`, the Potency was “inactive”. In the case of `COc1cccc(CNC(=O)CNC(=O)c2cccs2)c1`, the Potency was inconclusive: 18.5 µM [inhibitor, single point]. For `O=C(/C=C/c1ccccc1)Nc1cc(S(=O)(=O)N2CCOCC2)ccc1N1CCCC1`, the Potency was inconclusive: 2.08 µM [inhibitor, partial curve, poor fit]. For `Cc1cccc(NC(=S)Nc2ccc(Br)cc2)c1`, the Potency was inconclusive: 6.57 µM [inhibitor, partial curve, poor fit]. For `COc1ccc(NC(=O)Cn2cnc3c(cnn3C(C)(C)C)c2=O)cc1OC`, the Potency was inconclusive: 1.17 µM [inhibitor, partial curve, poor fit]. For `CN1CCN(S(=O)(=O)c2ccc3c(c2)oc(=O)n3C)CC1`, the Potency was inconclusive: 13.1 µM [inhibitor, single point]. With `Cc1ccc(C2c3c(oc4cc(C)c(C)cc4c3=O)C(=O)N2CCCN2CCOCC2)cc1` (configuration not stated) the Potency was inconclusive: 4.15 µM [inhibitor, partial curve]. With `COc1cc(C2C(C#N)=C(N)N(Nc3ccccc3)C3=C2C(=O)CC(C)(C)C3)ccc1OCc1cccc(F)c1` (configuration not stated) the Potency was inconclusive: 0.0657 µM [inhibitor, full curve, poor fit]. For `CCCCCn1c(CN2CCN(Cc3ccccc3)CC2)nc2c1c(=O)n(C)c(=O)n2C`, the Potency was inconclusive: 7.38 µM [inhibitor, partial curve, poor fit]. With `COc1ccc(C(=O)Nc2ccc(C(=O)OCC(=O)c3cccc4ccccc34)cc2)cc1` the Potency was active: 13.1 µM. In the case of `COc1ccc(S(=O)(=O)NCCCN2CCCC2=O)cc1OC`, the Potency was inconclusive: 14.7 µM [inhibitor, partial curve, poor fit]. With `O=C(Oc1ccc2c(-c3ccccc3)cc(=O)oc2c1)C1CCCCC1` the Potency was inconclusive: 1.04 µM [inhibitor, partial curve, poor fit]. In the case of `CC(C)CCN1CCN(Cc2cccc3cccnc23)CC1CCO` (configuration not stated), the Potency was inconclusive: 1.04 µM [inhibitor, full curve]. With `CCCCCCCCCCCCCC(=O)O` the Potency was inconclusive: 0.738 µM [inhibitor, partial curve]. For `CCc1cccc(NC(=O)CCCSc2nc3ccccc3[nH]2)c1`, the Potency was “inactive”. With `COc1ccc(CN(C)CC(=O)Nc2ccc(Cl)cc2C(F)(F)F)c(OC)c1` the Potency was inconclusive: 18.5 µM [inhibitor, single point]. In the case of `COc1ccc(NC(=O)c2ccccc2NC(=O)COc2ccccc2)cc1`, the Potency was “inactive”. With `C=CCN1C(=O)c2ccc(C(=O)N(C)CC(=O)Nc3ccccc3Br)cc2C1=O` the Potency was “inactive”. For `Fc1ccccc1C(c1nnnn1Cc1ccc2c(c1)OCO2)N1CCN(Cc2ccccc2)CC1` (configuration not stated), the Potency was active: 1.85 µM. For `O=C(NCc1ccccc1)C(c1ccccc1)N(C(=O)c1csnn1)c1ccc(F)cc1` (configuration not stated), the Potency was “inactive”. For `COCCCNC(=O)CSc1nc2ccccc2c(=O)n1CCCC(=O)NCC1CCCO1` (configuration not stated), the Potency was inconclusive: 0.0029 µM [inhibitor, full curve, poor fit]. For `NC(=O)NC1NC(=O)NC1=O` (configuration not stated), the Potency was inconclusive: 0.329 µM [inhibitor, partial curve, poor fit]. In the case of `CC(NC(=O)c1cccs1)C1CCCO1` (configuration not stated), the Potency was inconclusive: 11.7 µM [inhibitor, single point]. With `NC(=O)C1CC(=O)N(c2ccc(OCc3ccc(Cl)cc3Cl)cc2)C1` (configuration not stated) the Potency was “inactive”. With `O=c1c2c3c(sc2n2cnnc2n1Cc1ccccc1)CN(Cc1ccccc1)CC3` the Potency was inconclusive: 0.131 µM [inhibitor, full curve, poor fit]. With `CSc1cc(N2CCOCC2)nc(-c2ccccc2Cl)n1` the Potency was inconclusive: 18.5 µM [inhibitor, single point]. For `ClCCOCCCl`, the Potency was inconclusive: 10.4 µM [inhibitor, partial curve, poor fit]. In the case of `C/C(CCN1CCc2nc(-c3ccccc3)c(-c3ccccc3)cc2C1)=N\O[C@@H](C)c1cn([C@H](CO)Cc2ccccc2)nn1`, the Potency was active: 13.1 µM. With `N#Cc1ccc(CSc2nnc(-c3cnccn3)o2)cc1` the Potency was inconclusive: 10.4 µM [inhibitor, single point]. For `CC/C=C/C(=O)N1CC2(CC(c3cccc(NC(=O)c4ccccc4)c3)=NO2)C[C@@H]1C(N)=O` (some centres not stated), the Potency was inconclusive: 0.117 µM [inhibitor, full curve, poor fit]. For `CCCCN(C(=O)c1cccc(N2C(=O)c3ccccc3C2=O)c1)c1c(N)n(CC(C)C)c(=O)[nH]c1=O`, the Potency was inconclusive: 18.5 µM [inhibitor, single point]. For `COc1ccc(CC(=O)Nc2ccc(N3CCN(c4ccc(OC)cc4)CC3)c(C#N)c2)cc1`, the Potency was inconclusive: 4.15 µM [inhibitor, single point]. For `Cc1ccc(N(C)S(=O)(=O)c2cc3c(cc2C)NC(=O)CO3)cc1`, the Potency was “inactive”. For `COc1ccc(C)cc1N1CC(C(=O)OCc2nc(N)nc(Nc3ccccc3C)n2)CC1=O` (configuration not stated), the Potency was “inactive”. With `Cc1cccc(NC(=S)N(CCCN2CCOCC2)Cc2cn(C)c3ccccc23)c1` the Potency was inconclusive: 11.7 µM [inhibitor, partial curve, poor fit].
